The list shows a part of the results, in another mix than the full data. At the low end of the ranking, values are background and their order means little.
Assays:
Experiment in all cases: DAPPL (digital affinity profiling via proximity ligation, sequencing)
Settings in all cases: 10 mM Tris-HCl pH 7.5, 50 mM NaCl, 1 mM DTT, 4% glycerol, room temperature, 30 min; GST-TFs on glutathione beads, 16-mer random dsDNA library, 0.1% …; high values mean tight binding; double strand, one strand shown; scale: fold enrichment (6-mer frequency, TF over GST control)
[1] = target: T1, ELK1 (UniProt P19419)
T1 sequence: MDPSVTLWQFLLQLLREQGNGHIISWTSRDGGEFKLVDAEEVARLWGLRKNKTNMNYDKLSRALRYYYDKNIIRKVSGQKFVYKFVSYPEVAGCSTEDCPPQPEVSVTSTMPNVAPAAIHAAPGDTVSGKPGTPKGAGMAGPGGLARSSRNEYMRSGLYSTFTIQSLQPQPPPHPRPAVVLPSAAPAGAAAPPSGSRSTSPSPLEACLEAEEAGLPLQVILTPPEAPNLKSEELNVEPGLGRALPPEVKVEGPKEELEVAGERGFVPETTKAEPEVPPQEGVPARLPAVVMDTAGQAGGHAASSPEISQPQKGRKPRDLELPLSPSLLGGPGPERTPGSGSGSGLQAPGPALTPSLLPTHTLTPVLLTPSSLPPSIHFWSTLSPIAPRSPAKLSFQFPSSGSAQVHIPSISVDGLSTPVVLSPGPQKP

[2] = target: T2, ELK3 (UniProt P41970)
T2 sequence: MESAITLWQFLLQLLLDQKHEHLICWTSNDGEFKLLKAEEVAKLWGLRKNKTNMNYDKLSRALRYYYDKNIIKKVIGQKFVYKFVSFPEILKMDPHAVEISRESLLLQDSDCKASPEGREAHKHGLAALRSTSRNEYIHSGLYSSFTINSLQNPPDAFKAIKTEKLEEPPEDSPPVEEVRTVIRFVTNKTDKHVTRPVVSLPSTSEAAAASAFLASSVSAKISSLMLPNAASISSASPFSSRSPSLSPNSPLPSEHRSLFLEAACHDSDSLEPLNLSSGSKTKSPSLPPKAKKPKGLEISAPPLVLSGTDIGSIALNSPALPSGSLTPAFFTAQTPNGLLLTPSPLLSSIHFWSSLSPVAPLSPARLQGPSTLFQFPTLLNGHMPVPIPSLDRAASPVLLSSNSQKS

[3] = target: T3, SPIC (UniProt Q8N5J4)
T3 sequence: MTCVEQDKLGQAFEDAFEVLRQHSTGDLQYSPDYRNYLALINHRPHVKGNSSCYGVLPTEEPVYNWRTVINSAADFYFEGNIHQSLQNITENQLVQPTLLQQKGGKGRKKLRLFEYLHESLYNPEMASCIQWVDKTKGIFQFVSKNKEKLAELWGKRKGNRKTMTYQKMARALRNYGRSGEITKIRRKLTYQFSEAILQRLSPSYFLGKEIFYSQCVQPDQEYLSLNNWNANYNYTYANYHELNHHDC

[4] = target: T4, ETV3 (UniProt P41162-2)
T4 sequence: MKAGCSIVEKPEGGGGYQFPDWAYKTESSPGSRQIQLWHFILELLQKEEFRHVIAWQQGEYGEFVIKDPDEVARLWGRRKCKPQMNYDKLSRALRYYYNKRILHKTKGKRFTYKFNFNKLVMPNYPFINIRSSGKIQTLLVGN

[5] = target: T5, ETS2 (UniProt P15036)
T5 sequence: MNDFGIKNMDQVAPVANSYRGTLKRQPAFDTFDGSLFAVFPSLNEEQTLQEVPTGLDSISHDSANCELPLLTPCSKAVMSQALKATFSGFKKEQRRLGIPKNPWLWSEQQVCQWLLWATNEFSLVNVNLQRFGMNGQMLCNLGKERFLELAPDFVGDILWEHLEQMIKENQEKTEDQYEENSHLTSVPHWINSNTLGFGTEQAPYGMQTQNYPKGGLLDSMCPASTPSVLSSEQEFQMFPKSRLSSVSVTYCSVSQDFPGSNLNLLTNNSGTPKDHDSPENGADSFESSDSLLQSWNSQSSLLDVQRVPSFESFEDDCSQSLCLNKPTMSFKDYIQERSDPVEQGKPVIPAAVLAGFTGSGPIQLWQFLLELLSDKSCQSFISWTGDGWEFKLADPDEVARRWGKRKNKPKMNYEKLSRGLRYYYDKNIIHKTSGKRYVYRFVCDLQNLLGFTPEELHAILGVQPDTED

GAACAT
binding signal [1]: 1.02 | binding signal [2]: 1.16 | binding signal [3]: 0.999 | binding signal [4]: 1.08

GCCTCA
binding signal [1]: 1.34 | binding signal [2]: 1.19 | binding signal [3]: 1.21

TTATGA
binding signal [1]: 1.15 | binding signal [2]: 1.22 | binding signal [3]: 1.26

TATGCG
binding signal [1]: 1.42 | binding signal [3]: 1.63 | binding signal [5]: 1.43

TACTCG
binding signal [1]: 1.29 | binding signal [3]: 1.25 | binding signal [4]: 1.28

GTTTTC
binding signal [1]: 1.2 | binding signal [3]: 1.1 | binding signal [5]: 1.16

ACTGGC
binding signal [1]: 1.12 | binding signal [3]: 1.28 | binding signal [4]: 1.07

TGCAAA
binding signal [1]: 1.11 | binding signal [2]: 1.14 | binding signal [3]: 0.938 | binding signal [4]: 1.06

TATCGA
binding signal [1]: 1.28 | binding signal [2]: 1.34 | binding signal [3]: 1.28 | binding signal [4]: 1.25

ATTGCC
binding signal [1]: 1.27 | binding signal [3]: 1.29

TGCCGC
binding signal [1]: 1.3 | binding signal [3]: 1.15 | binding signal [5]: 1.33 | binding signal [4]: 1.36

ATAGTA
binding signal [1]: 1.18 | binding signal [3]: 1.29

ACTCGC
binding signal [1]: 1.14 | binding signal [2]: 0.997 | binding signal [3]: 1.2

ATGCAC
binding signal [1]: 1.33 | binding signal [3]: 1.19

GCGATG
binding signal [1]: 1.48 | binding signal [3]: 1.07

ACGCCC
binding signal [1]: 1.21 | binding signal [2]: 1.11 | binding signal [3]: 0.957

CTTAGA
binding signal [1]: 1.11 | binding signal [3]: 1.27 | binding signal [4]: 1.07

ACCGAA
binding signal [1]: 1.04 | binding signal [3]: 1.12 | binding signal [4]: 1.02

CTGGAC
binding signal [1]: 1.07 | binding signal [2]: 0.995 | binding signal [3]: 1.1

CGATCG
binding signal [1]: 1.12 | binding signal [2]: 0.923 | binding signal [3]: 0.933

CATCGA
binding signal [1]: 0.989 | binding signal [3]: 1.06 | binding signal [4]: 1.08

ATATAC
binding signal [1]: 1.24 | binding signal [3]: 1.17

GTGCTC
binding signal [1]: 1.18 | binding signal [2]: 0.976 | binding signal [3]: 1.21 | binding signal [5]: 1.26 | binding signal [4]: 1.25

TTAGCG
binding signal [1]: 1.04 | binding signal [2]: 0.912 | binding signal [3]: 1.03

AAGCTC
binding signal [1]: 1.22 | binding signal [3]: 0.997 | binding signal [4]: 1.18

ACCGAC
binding signal [1]: 1.29 | binding signal [3]: 1.37

GACCTT
binding signal [1]: 1.68 | binding signal [3]: 1.74

CATTTA
binding signal [1]: 1.23 | binding signal [3]: 1.17 | binding signal [5]: 1.31

ACCTAA
binding signal [1]: 1.08 | binding signal [2]: 1.2 | binding signal [3]: 1.21

TCCCTA
binding signal [1]: 1.26 | binding signal [3]: 1.31

TCTCAA
binding signal [1]: 1.27 | binding signal [2]: 1.43 | binding signal [3]: 1.24 | binding signal [5]: 1.25

GCTTCA
binding signal [1]: 1.39 | binding signal [3]: 1.3

ATTTGA
binding signal [1]: 1.1 | binding signal [3]: 1.11 | binding signal [5]: 1.2

GCTCGT
binding signal [1]: 1.16 | binding signal [2]: 0.974 | binding signal [3]: 1.14

CCAAAA
binding signal [1]: 1.13 | binding signal [3]: 1.05 | binding signal [5]: 1.11 | binding signal [4]: 1.15

TAACAT
binding signal [1]: 1.26 | binding signal [2]: 1.28 | binding signal [3]: 1.46

CCTGGG
binding signal [1]: 1.18 | binding signal [2]: 0.972 | binding signal [3]: 1.05

CTTGAT
binding signal [1]: 1.53 | binding signal [2]: 1.34 | binding signal [3]: 1.41 | binding signal [5]: 1.35

TTTAGC
binding signal [1]: 1.05 | binding signal [3]: 1.07

ATCTCC
binding signal [1]: 1.5 | binding signal [3]: 1.49 | binding signal [5]: 1.5

CTAAGC
binding signal [3]: 1.08 | binding signal [5]: 1.15 | binding signal [4]: 1.07

AATAAC
binding signal [3]: 1.42 | binding signal [5]: 1.27

TGGTTA
binding signal [3]: 1.25 | binding signal [5]: 1.07 | binding signal [4]: 1.05

GCTCAG
binding signal [3]: 1.23 | binding signal [5]: 1.06

TTCCGT
binding signal [3]: 2.02 | binding signal [5]: 1.94

CAAATA
binding signal [1]: 1.13 | binding signal [2]: 1.11 | binding signal [3]: 1.09

GAATTT
binding signal [3]: 1.39 | binding signal [5]: 1.28

TTAAGT
binding signal [3]: 1.25 | binding signal [5]: 1.16

ATTAAT
binding signal [3]: 1.18 | binding signal [5]: 1.27

GCTTTC
binding signal [1]: 1.22 | binding signal [2]: 1.38 | binding signal [3]: 1.06

CCGTCC
binding signal [3]: 1.39 | binding signal [5]: 1.38

TTGCGC
binding signal [3]: 0.929 | binding signal [5]: 1.16

TTGATT
binding signal [3]: 1.35 | binding signal [5]: 1.22

CCTATG
binding signal [2]: 1.18 | binding signal [3]: 1.1 | binding signal [5]: 1.19 | binding signal [4]: 1.29

TTGGTG
binding signal [3]: 1.32 | binding signal [5]: 1.32

GAACCA
binding signal [2]: 0.968 | binding signal [3]: 0.996 | binding signal [5]: 0.971 | binding signal [4]: 0.971

TTAACT
binding signal [1]: 1.14 | binding signal [2]: 1.19 | binding signal [3]: 1.36

ATTGAA
binding signal [3]: 0.976 | binding signal [5]: 1.09

CGATGA
binding signal [3]: 0.948 | binding signal [5]: 0.954 | binding signal [4]: 0.961

AATGTC
binding signal [3]: 1.41 | binding signal [5]: 1.27

AACGAA
binding signal [3]: 1.2 | binding signal [5]: 1.18

GTTTCC
binding signal [3]: 2.6 | binding signal [5]: 2.82

ATCTGA
binding signal [1]: 1.08 | binding signal [2]: 1.2 | binding signal [3]: 1.21

TAAAGA
binding signal [3]: 0.996 | binding signal [5]: 1.08

GACCTA
binding signal [3]: 1.18 | binding signal [5]: 1.19

TATGGT
binding signal [1]: 1.3 | binding signal [2]: 1.17 | binding signal [3]: 1.49

TAATTG
binding signal [3]: 1.31 | binding signal [5]: 1.42

AGGAAA
binding signal [3]: 1.42 | binding signal [5]: 1.48

GCAAAA
binding signal [2]: 1.15 | binding signal [3]: 1.06 | binding signal [5]: 1.18 | binding signal [4]: 1.07

TTAGTT
binding signal [3]: 1.28 | binding signal [5]: 1.23

GCTTAG
binding signal [2]: 0.967 | binding signal [3]: 1.12 | binding signal [5]: 1.11 | binding signal [4]: 1.19

TTCATA
binding signal [3]: 0.987 | binding signal [5]: 1.15

AACGTA
binding signal [3]: 1.02 | binding signal [5]: 0.979

TAGTTT
binding signal [2]: 1.23 | binding signal [3]: 1.21 | binding signal [5]: 1.19 | binding signal [4]: 1.32

TATAAG
binding signal [3]: 1.1 | binding signal [5]: 1.17 | binding signal [4]: 1.15

TGGTTT
binding signal [3]: 1.67 | binding signal [5]: 1.54

TTTCTT
binding signal [3]: 1.24 | binding signal [5]: 1.32 | binding signal [4]: 1.34

CCCGCA
binding signal [3]: 1.27 | binding signal [5]: 1.18

AATAAT
binding signal [3]: 1.31 | binding signal [5]: 1.42 | binding signal [4]: 1.27

CAAATT
binding signal [3]: 1.16 | binding signal [4]: 1.13

ATGGTT
binding signal [3]: 1.33 | binding signal [4]: 1.34

TATCCT
binding signal [2]: 1.76 | binding signal [3]: 1.87 | binding signal [4]: 1.8

AGCTAA
binding signal [3]: 0.963 | binding signal [4]: 1.1

ATACAG
binding signal [3]: 1.14 | binding signal [4]: 1.18

GTAAAC
binding signal [2]: 1.25 | binding signal [3]: 1.23 | binding signal [4]: 1.3

AGGTAT
binding signal [2]: 0.947 | binding signal [3]: 0.921 | binding signal [4]: 1.11

GAATCC
binding signal [2]: 1.08 | binding signal [3]: 1.1

AATGAT
binding signal [3]: 1.1 | binding signal [4]: 1.21

TGTAAA
binding signal [2]: 1.09 | binding signal [3]: 1.24 | binding signal [4]: 1.2

ACATTC
binding signal [3]: 1.22 | binding signal [4]: 1.31

TAGCCC
binding signal [2]: 1.24 | binding signal [3]: 1.23 | binding signal [5]: 1.14
